Data from paper PMC7160950, “Identification and analysis of KLF13 variants in patients with congenital heart disease” (BMC Medical Genetics, 2020).
No constants are given. Whether binding was seen depends on the method and setting. Binding seen in cells or lysates may run through a third protein. Some results given as binding are weak or reduced against the parent protein; the word gives no strength.

Chains of the proteins cited; added tags and fusions are not shown. Lines headed by an entry give the natural chain unless they say otherwise; changes in a name come on top.
UniProt Q9Y2Y9: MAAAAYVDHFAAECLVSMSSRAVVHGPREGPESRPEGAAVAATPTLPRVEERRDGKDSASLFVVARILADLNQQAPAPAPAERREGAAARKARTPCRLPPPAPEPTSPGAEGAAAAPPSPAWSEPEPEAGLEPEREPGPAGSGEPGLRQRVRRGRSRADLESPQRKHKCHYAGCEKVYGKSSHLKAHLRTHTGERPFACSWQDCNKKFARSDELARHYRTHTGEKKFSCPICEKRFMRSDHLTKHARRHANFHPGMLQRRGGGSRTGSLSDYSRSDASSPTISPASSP

How the values were obtained:
[1] = molecular target: KLF13 variant c.467G > A (S156N), myc-tagged (human) (UniProt Q9Y2Y9); assay: co-IP; 293 T cells co-transfected with wild-type or variant myc-KLF13 and TBX5; protein extracts incubated overnight with anti-myc antibody coupled to magnetic beads; bound proteins revealed with anti-TBX5 by Western blotting
[2] = molecular target: KLF13 variant c.487C > T (P163S), myc-tagged (human) (UniProt Q9Y2Y9); assay: as above

B1: TBX5 (natural protein, UniProt Q99593 1-518, looked up)
chain: MADADEGFGLAHTPLEPDAKDLPCDSKPESALGAPSKSPSSPQAAFTQQGMEGIKVFLHERELWLKFHEVGTEMIITKAGRRMFPSYKVKVTGLNPKTKYILLMDIVPADDHRYKFADNKWSVTGKAEPAMPGRLYVHPDSPATGAHWMRQLVSFQKLKLTNNHLDPFGHIILNSMHKYQPRLHIVKADENNGFGSKNTAFCTHVFPETAFIAVTSYQNHKITQLKIENNPFAKGFRGSDDMELHRMSRMQSKEYPVVPRSTVRQKVASNHSPFSSESRALSTSSNLGSQYQCENGVSGPSQDLLPPPNPYPLPQEHSQIYHCTKRKEEECSTTDHPYKKPYMETSPSEEDSFYRSSYPQQQGLGASYRTESAQRQACMYASSAPPSEPVPSLEDISCNTWPSMPSYSSCTVTTVQPMDRLPYQHFSAHFTSGPLVPRLAGMANHGSPQLGEGMFQHQTSVAHQPVVRQCGPQTGLQSPGTLQPPEFLYSHGVPRTLSPHQYHSVHGVGMVPEWSDNS
For B1, the binding [1] was “binds” and the binding [2] was “binds”.
